Measured values reported in paper PMC4053412.
No constants are given. Whether binding was seen depends on the method and setting. Binding seen in cells or lysates may run through a third protein. Some binding calls cover weakened binding; strength is not graded here.

Chains of the proteins cited; added tags and fusions are not shown.
UniProt Q16665: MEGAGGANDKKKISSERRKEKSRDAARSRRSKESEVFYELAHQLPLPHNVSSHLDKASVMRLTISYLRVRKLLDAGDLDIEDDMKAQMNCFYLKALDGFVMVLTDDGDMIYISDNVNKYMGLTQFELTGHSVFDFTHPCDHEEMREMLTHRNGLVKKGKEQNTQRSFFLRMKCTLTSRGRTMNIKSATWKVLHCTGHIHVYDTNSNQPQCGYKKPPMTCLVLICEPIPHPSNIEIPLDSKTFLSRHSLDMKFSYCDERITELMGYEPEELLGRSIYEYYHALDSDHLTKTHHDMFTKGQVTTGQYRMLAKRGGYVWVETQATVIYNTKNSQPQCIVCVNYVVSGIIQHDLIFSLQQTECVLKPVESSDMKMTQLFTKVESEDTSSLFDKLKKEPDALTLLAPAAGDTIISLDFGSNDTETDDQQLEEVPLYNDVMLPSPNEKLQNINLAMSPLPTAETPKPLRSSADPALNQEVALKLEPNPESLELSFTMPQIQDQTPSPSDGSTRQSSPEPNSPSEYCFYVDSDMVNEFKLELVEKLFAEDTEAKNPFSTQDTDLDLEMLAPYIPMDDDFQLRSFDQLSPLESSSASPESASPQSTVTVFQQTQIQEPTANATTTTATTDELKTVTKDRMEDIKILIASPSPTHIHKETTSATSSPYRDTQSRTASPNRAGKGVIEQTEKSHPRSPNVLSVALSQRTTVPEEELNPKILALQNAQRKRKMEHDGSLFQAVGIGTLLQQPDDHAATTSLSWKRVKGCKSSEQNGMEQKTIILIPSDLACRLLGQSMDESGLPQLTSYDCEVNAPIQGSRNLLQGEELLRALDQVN
UniProt Q9C0J9: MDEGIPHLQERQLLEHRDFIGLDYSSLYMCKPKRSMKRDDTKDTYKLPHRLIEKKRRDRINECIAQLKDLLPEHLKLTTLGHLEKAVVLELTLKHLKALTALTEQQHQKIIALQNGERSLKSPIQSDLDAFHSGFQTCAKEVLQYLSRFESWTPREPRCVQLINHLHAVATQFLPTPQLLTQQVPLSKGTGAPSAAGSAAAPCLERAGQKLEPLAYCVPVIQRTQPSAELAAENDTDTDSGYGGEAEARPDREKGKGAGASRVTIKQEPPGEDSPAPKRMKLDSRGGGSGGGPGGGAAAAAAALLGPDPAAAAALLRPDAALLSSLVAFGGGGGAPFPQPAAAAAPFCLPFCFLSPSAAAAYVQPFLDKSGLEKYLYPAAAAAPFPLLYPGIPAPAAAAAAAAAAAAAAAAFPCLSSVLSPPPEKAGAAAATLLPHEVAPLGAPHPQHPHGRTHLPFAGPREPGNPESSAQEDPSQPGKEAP

Target: hypoxia-inducible factor-1α (human (endogenous in Ishikawa)) (UniProt Q16665)
Assay: co-IP; endogenous proteins; Ishikawa cells under hypoxia for 24 h, RIPA lysate precleared with mouse IgG and protein A+G-agarose; precipitated with mouse anti-human HIF-1α (10 µg/ml) overnight, control mouse IgG; western blotting

binding: binds
Substance: SHARP1 (from UniProt Q9C0J9 1-482)
